Measured values reported in patent US10208049B2, “Compounds and methods of treating ocular disorders” (Case Western Reserve University, priority 2009, dated 2019).
Some of these results come from one statement about several compounds together. Peptide text beside a SMILES is read from it.

How the values were obtained:
RPE cells = test: Viability of RPE cells treated with retinal; type: cell-based
ABCA4−/−/RDH8−/− mice = test: HPLC analysis of 11-cis-retinal in eyes of ABCA4−/−/RDH8−/− mice; type: in vivo, mouse
From the text: We tested 21 drugs containing primary amino groups to determine if they react with the aldehyde group of all-trans-RAL to reduce its toxic levels in the eye after exposure to light and prevent its condensation into toxic conjugates. […] For these experiments, we used ABCA4^−/−/RDH8^−/− mice as models for Stargardt's disease and AMD. We employed analytical methods for determining the pharmacodynamics and pharmacokinetics of candidate drugs including: HPLC/MS/MS for analysis of retinoids and histological sections and OCT for assessment of retinal pathology. The relative amount of retinoids and their composition strongly correlates with the health status of the retina. […] Methodologies for performing the analysis on ABCA4^−/−/RDH8^−/− mice is described below.
Abca4^−/− mice also were generated by standard procedures (Ingenious Targeting, Inc., Stony Brook, N.Y.). […] Rdh8^−/−Abca4^−/− mice were established by crossbreeding Abca4^−/− mice with Rdh8^−/− mice. […] PCR products were cloned and sequenced to verify their identities.
All experimental procedures related to extraction, derivatization, and separation of retinoids from dissected mouse eyes were carried out under dim red light. Two whole mouse eyes were homogenized in 1 ml of 50 mM phosphate buffer, pH 7.0, containing 50% ethanol and 10 mM NH2OH. Ice-cold methanol (1 ml) was added to the homogenates 20 min after incubation at room temperature (RT), non-polar retinoids were extracted twice with 4 ml of hexane. The organic phase was collected, dried down in a SpeedVac and re-solubilized in 0.3 ml of hexane. […] Retinoids were detected at 325 nm (retinyl esters and retinols) and 350 nm (retinyl oximes) with a diode array detector. Those of interest were quantified based on the areas under their peaks calculated with the help of HP Chemstation A.03.03 software and compared with areas calculated based on known amounts of synthetic standards plotted as a standard curve.

Row | Structure (SMILES) | improvement of viability of RPE cells treated with retinal compared to untreated cells (RPE cells) | increase of 11-cis-retinal amount in comparison to untreated control animal (ABCA4−/−/RDH8−/− mice)
1 | Nc1ccc2c3c(cccc13)-c1ccccc1-2 [fluoranthen-3-amine] | at least 15% | –
2 | CC(C)C[C@H](CN)CC(=O)O [Lyrica, (S)-3-(aminomethyl)-5-methylhexanoic acid] | – | at least 30%
3 | CC(C)C[C@@H](CN)CC(=O)O [(R)-3-(aminomethyl)-5-methylhexanoic acid] | – | at least 30%
4 | NCCc1c[nH]c2ccc(F)cc12 [2-(5-fluoro-1H-indol-3-yl)ethanamine] | at least 15% | –
5 | Nc1ccc(C(=O)O)c(O)c1 [Paser] | – | at least 30%
6 | CCOC(=O)CNC(=O)CNC(=O)C(C)NC(=O)C(N)Cc1ccc(O)cc1 (stereo not drawn) [ethyl 2-[[2-[2-[[2-amino-3-(4-hydroxyphenyl)propanoyl]amino]propanoylamino]acetyl]amino]acetate] (H-YAGG-OEt; configuration not given here) | at least 15% | –
7 | COc1cc([N+](=O)[O-])cc2c(CCN)c[nH]c12 [2-(7-methoxy-5-nitro-1H-indol-3-yl)ethanamine] | at least 15% | –
8 | Nc1cc2nc3ccccc3nc2cc1N [phenazine-2,3-diamine] | at least 15% | –
9 | CCCc1ccc2[nH]cc(CCN)c2c1 [2-(5-propyl-1H-indol-3-yl)ethanamine] | at least 15% | –
10 | CCOc1ccc(N)cc1 [4-ethoxyaniline] | at least 15% | –
11 | Nc1ccc(C(=O)O)c(O)c1 [4-amino-2-hydroxy-benzoic acid] | at least 15% | –
12 | CCc1cc(Cc2cc(CC)c(N)c(CC)c2)cc(CC)c1N [4-[(4-amino-3,5-diethyl-phenyl)methyl]-2,6-diethyl-aniline] | at least 15% | –
